According to publication PMC6407830:
No constants are given. Whether binding was seen depends on the method and setting. Binding seen in cells or lysates may run through a third protein. For some assays here: Binding calls can cover weak binding; strength is not graded here.

Amino acid sequences for entries named in this document (tags omitted). A change or cut given only in a name is not applied to a line headed by its entry. Residues count along the entry.
UniProt Q9EQY0, residues 21-977: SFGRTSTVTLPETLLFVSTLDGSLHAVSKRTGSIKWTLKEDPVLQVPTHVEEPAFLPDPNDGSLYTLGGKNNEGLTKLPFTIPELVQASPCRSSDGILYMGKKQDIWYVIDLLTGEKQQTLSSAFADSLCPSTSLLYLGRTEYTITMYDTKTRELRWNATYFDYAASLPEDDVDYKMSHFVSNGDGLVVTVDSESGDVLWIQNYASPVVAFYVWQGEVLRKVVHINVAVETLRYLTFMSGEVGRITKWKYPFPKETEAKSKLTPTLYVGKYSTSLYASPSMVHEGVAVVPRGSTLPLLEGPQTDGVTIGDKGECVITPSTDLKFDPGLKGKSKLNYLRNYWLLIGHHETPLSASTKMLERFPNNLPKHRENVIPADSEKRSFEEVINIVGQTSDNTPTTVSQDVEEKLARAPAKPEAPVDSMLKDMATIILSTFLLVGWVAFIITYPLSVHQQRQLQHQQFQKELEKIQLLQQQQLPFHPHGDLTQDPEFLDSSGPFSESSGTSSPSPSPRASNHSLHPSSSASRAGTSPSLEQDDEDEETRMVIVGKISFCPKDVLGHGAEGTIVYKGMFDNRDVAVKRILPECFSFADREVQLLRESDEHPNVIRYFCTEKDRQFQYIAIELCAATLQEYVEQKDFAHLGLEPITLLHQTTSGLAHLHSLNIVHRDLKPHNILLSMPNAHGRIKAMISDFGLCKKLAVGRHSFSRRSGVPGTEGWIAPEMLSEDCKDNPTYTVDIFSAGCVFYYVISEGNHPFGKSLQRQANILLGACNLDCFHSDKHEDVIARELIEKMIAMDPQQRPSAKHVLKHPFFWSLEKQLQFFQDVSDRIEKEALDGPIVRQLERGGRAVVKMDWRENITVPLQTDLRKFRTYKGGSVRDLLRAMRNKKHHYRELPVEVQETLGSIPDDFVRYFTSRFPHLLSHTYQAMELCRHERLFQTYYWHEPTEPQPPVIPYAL
UniProt P63330: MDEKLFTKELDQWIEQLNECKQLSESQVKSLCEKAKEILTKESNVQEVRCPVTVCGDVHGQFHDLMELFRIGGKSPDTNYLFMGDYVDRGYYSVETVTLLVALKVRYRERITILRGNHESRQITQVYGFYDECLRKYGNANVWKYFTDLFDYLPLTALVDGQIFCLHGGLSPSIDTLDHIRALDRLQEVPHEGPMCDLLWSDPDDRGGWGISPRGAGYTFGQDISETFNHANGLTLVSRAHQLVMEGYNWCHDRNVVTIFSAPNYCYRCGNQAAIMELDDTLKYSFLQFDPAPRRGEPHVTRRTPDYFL

Columns and labels:
[1] = biological target: IRE-1, endogenous in mouse myocardium (mouse (endogenous in myocardium)) (UniProt Q9EQY0); experiment: co-IP; endogenous proteins in Pak2-CKO mouse myocardium after TAC
[2] = biological target: IRE-1, endogenous in mouse myocardium (mouse (endogenous in myocardium)) (UniProt Q9EQY0); experiment: co-IP; endogenous proteins in Pak2-Flox mouse hearts after TAC

In the case of “PP2Ac, endogenous in mouse myocardium (from UniProt P63330)”, the binding [1] is reported as “binds” and the binding [2] is reported as “no binding (only in Pak2-Flox hearts after TAC)”.
